Drawing on publication PMC7588591, this text covers binding for three substances.

By UniProt entry, the sequences of proteins in these tests, tags left out. Where a name states a change or a piece, a line headed by the entry shows the natural chain unless it says otherwise.
UniProt Q7Z434: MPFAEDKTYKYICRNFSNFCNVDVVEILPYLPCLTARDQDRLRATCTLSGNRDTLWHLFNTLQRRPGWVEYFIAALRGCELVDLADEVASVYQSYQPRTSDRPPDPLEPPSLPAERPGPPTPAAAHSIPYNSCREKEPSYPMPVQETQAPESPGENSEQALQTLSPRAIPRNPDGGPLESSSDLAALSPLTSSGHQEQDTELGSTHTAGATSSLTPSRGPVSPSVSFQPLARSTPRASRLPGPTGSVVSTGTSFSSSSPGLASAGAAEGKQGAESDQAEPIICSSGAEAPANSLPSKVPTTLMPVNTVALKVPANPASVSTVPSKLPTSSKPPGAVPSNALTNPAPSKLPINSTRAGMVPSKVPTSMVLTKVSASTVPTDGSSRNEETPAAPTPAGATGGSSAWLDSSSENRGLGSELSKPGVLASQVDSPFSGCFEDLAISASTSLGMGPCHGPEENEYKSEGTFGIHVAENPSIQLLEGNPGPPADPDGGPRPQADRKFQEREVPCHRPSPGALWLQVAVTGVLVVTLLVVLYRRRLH
UniProt Q14653: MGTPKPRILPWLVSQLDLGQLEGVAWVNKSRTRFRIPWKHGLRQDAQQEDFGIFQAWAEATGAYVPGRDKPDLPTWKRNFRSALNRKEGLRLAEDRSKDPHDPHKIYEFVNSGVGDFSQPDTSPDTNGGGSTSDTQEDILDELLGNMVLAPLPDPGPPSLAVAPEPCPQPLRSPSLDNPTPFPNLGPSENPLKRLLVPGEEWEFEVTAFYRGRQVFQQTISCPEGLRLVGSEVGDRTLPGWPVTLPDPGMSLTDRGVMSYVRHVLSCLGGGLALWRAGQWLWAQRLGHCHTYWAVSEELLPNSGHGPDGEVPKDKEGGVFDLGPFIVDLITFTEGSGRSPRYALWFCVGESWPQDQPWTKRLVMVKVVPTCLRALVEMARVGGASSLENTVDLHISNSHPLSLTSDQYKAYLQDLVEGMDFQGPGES
UniProt Q9UHD2: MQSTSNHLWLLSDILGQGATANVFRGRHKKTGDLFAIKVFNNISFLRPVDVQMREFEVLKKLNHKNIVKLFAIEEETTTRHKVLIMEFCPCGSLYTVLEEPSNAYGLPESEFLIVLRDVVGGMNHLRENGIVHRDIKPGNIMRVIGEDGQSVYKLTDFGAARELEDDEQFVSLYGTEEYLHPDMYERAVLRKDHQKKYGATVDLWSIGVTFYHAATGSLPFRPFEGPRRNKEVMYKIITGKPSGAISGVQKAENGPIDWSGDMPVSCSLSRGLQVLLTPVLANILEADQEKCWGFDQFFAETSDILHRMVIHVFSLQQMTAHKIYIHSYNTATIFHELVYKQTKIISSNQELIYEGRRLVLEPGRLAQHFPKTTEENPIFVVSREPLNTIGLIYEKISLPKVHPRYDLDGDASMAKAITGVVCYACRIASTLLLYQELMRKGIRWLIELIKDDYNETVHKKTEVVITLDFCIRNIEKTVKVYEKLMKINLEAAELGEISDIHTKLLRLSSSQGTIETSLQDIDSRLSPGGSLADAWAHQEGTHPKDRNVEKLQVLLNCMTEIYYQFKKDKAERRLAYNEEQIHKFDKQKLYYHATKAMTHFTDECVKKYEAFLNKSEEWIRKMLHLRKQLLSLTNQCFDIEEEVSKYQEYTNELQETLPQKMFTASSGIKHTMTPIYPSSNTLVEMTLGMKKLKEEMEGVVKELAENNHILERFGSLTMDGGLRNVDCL
UniProt Q13114: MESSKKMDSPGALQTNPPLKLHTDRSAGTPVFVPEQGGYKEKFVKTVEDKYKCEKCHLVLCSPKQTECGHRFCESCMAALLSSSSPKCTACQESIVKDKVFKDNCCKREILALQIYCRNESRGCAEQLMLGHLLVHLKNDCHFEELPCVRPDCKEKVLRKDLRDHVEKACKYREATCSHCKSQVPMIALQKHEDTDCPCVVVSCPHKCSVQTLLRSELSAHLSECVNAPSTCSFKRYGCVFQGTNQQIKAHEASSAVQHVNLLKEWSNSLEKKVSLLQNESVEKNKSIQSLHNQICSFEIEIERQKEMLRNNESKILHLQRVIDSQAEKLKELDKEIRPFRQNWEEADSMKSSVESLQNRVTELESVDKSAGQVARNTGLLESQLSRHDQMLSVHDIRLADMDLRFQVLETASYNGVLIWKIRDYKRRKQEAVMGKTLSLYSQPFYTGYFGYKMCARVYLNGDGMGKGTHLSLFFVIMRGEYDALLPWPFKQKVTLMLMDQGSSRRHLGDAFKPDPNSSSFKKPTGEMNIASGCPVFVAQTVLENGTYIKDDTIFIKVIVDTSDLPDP

No constants are given. Whether binding was seen depends on the method and setting. Binding seen in cells or lysates may run through a third protein. Binding can be weak; no strength is given.

The experiment deals with GST-MAVS (UniProt Q7Z434). Description: pull-down; purified recombinant GST-MAVS on glutathione agarose beads, incubated with lysate of cells transfected with Flag-TRAF3, Flag-TBK1, Flag-IRF3 and/or M-HA; immunoblot; only the target purified. A general note: In western blotting, separated proteins are transferred to a membrane and probed.
On to Flag-IRF3 (from UniProt Q14653 1-427), for which the binding entry is on record as “binds”. For Flag-TBK1 (from UniProt Q9UHD2 1-729), the binding result is listed as “binds”. In the case of Flag-TRAF3 (from UniProt Q13114 1-568), the binding entry is “binds”.
